Source: patent US11633458B2, “Compositions and methods for treating melanoma” (University of Virginia Patent Foundation, priority 2013, dated 2023)
At least one structure is not confirmed: it was looked up by name or label, or the drawing left a doubt.

Key:
[1] = system: melanoma cell lines VMM1, DM13, DM93 and DM122; test: Intracellular staining of chemokines CCL2-5, CXCL9, CXCL12 by flow cytometry after overnight TLR agonist stimulation with or without IFNγ; format: cell-based, human; details: TLR agonist alone
Experimental: Stained cells were collected on the FACSCalibur instrument (BD Biosciences) and analyzed with FlowJo 8.8.6 software (TreeStar, Ashland, Oreg.). Analyses were conducted on live cells (95%) as defined by forward and side-angle scatter. Gates were set based on isotype-matched (ISO) controls or fluorescence-minus-one (FMO) controls.
(§1) These were used with or without rh-IFNγ (1000 IU/mL; PeproTech). After stimulation, cells were detached using Accutase.
(§2) Cells were fixed and permeablilized using the BD Cytofix/Cytoperm kit and then stained with the indicated antibodies. Staining antibodies: CCL2-PE, CCL3-PE, CCL4-PE, CCL5-PE, CXCL10-PE (BD Pharmingen), CXCL9-PE, CXCL12-APC (R&D Systems), IgG1-PE, and IgG2α-PE (Caltag). Flow cytometric analyses were conducted as described.

DM13 cells = test: TLR agonist dose response assay, CXCL10 producing cells by flow cytometry, constant IFNγ; format: cell-based, human; details: in the presence of IFNγ, even at much higher concentrations than in prior experiments
Experimental: FIGS. 3A-3D. […] Melanoma cells were analyzed for induced chemokine production after overnight stimulation with the indicated TLR agonists with (+) or without (−) IFNγ. FIG. 3A-FIG. 3B (12 panels/images each). […] Scale bars represent 100 μm. FIG. 3C. Graphic illustration of ELISA assays to detect CXCL10 from supernatants of stimulated melanoma cells DM13 (left) and VMM1 (right). FIG. 3D. TLR agonist dose response assay. […] Data are from 2 independent experiments.
as §1, §2

CCOCc1nc2c(N)nc3ccccc3c2n1CC(C)(C)O [resiquimod]
chemokine production [1]: little chemokine production | effect on CXCL10 induction (DM13 cells): little effect
